{
  "source": "patent US20250095772A1",
  "about": "“METHOD FOR IMPROVING THROUGHPUT OF COMPOUND-PROTEIN INTERACTION EXPERIMENTS” (SOUTHERN UNIVERSITY OF SCIENCE AND TECHNOLOGY, priority 2022, published 2025)",
  "system": "K562 cell lysate",
  "assay": "Single temperature point TPP target identification, 25 drugs pooled into 14 mixture systems (Example 2)",
  "format": "binding",
  "settings": "25 compounds in 14 mixture systems (each in 4), remaining steps as Example 1 (40 μM, K562 cell lysate, 52° C., LASSO β threshold 0.1); — = no target identified",
  "method": "In step S04: DMSO as a solvent was added to each mixture system in step S03 to enable a concentration of each drug to reach 40 μM, and then the single temperature point TPP method is applied to measure the interaction between each mixture system and the protein. The specific experimental steps are that: equal amounts of K562 cell lysate were mixed with a drug mixture system, incubated at room temperature for 10 minutes, then heated at 52° C. for 3 minutes, and then quickly cooled to 4° C. on a PCR machine. The samples were centrifuged at 21,000 rcf for 20 minutes at 4° C., and the supernatant was collected. According to the mass spectrometry-based proteomics quantification method, each sample was enzymatically digested and TMT labeled, and then the LC-MS mass spectrometry was used for measurement to obtain the content of protein. Based on the principle of the TPP method, the thermal stability of the protein can be improved through a combination with compounds. Therefore, if a protein can interact with the mixed system, then the content of protein measured by mass spectrometry will be higher, and vice versa.\nIn step S05: Nine measured values Yi obtained from the interaction between the nine mixture systems and the target protein are marked as response vectors Y; the response vectors Y were normalized so that the numerical values of the response vectors are between 0 and 1. […]",
  "data": [
    {"compound": "Cc1ccc(C(=O)NCCCCCC(=O)Nc2ccccc2N)cc1", "note": "[RG2833]", "values": [
      {"measurement": "Successfully Identified Target(s)", "value": "HDAC1"}
    ]}
  ]
}
